Data as given in PubChem BioAssay AID504774 (Drosophila RNAi Screening Center, 2011).
Purpose: 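Genes required for cells to withstand methyl methanesulphonate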 (primary screen). Cell system: Drosophila Kc167 cells. Knock-down reagent: long dsRNA against Drosophila genes, about 0.25 µg dsRNA per well. Duration: about 6 days: 3 days knock-down, then 3 days with or without MMS. Challenge: methyl methanesulphonate 0.004% (w/v) for 3 days after knock-down. Measured: 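ATP-dependent luminescence as a measure of live cells in MMS-exposed wells, quantile normalised within each plate, with replicate values also given as a mean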. Reading the numbers: mean viability with MMS and viability with MMS: higher = more surviving cells after MMS.
The deposit covers about 23,000 reagents; below is an unselected part of those that have a named target and a result. 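Values are quantile-normalised luminescence on an arbitrary scale; higher means more cells surviving MMS.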 Names joined by + are all predicted targets of the reagent.

| mean viability with MMS | viability with MMS, replicate 1 | viability with MMS, replicate 2 | gene | DRSC id |
| --- | --- | --- | --- | --- |
| 3.70e6 | 4.23e6 | 4.19e6 | CG8476 | DRSC16426 |
| 3.45e6 | 3.93e6 | 3.87e6 | Serinc | DRSC11296 |
| 3.54e6 | 3.99e6 | 4.03e6 | CG7133 | DRSC11798 |
| 3.56e6 | 4.08e6 | 3.98e6 | Adck1 | DRSC04394 |
| 3.56e6 | 4.10e6 | 3.97e6 | Unc-115a | DRSC12749 |
| 3.68e6 | 4.10e6 | 4.25e6 | Zip48C | DRSC06314 |
| 3.93e6 | 4.32e6 | 4.32e6 | Menl-2 + Menl-1 | DRSC07469 |
| 3.66e6 | 4.07e6 | 4.20e6 | Menl-2 + Menl-1 | DRSC07470 |
| 3.62e6 | 4.01e6 | 4.16e6 | cmb | DRSC09790 |
| 3.49e6 | 3.75e6 | 4.20e6 | Sesn | DRSC04101 |
| 3.86e6 | 4.38e6 | 4.23e6 | Sesn | DRSC04102 |
| 3.76e6 | 4.46e6 | 4.00e6 | Sesn | DRSC04103 |
| 3.69e6 | 4.08e6 | 4.27e6 | CG13577 | DRSC04213 |
| 3.51e6 | 3.99e6 | 4.11e6 | Bap170 | DRSC04964 |
| 3.51e6 | 3.96e6 | 4.02e6 | Bap170 | DRSC21826 |
| 3.40e6 | 4.05e6 | 3.49e6 | Moe | DRSC18684 |
| 3.47e6 | 3.96e6 | 3.93e6 | CG1529 | DRSC20515 |
| 3.29e6 | 3.67e6 | 3.72e6 | CG7564 | DRSC10880 |
| 3.56e6 | 4.01e6 | 4.05e6 | gl | DRSC16957 |
| 3.42e6 | 3.96e6 | 3.89e6 | CG33461 | DRSC22892 |
| 3.54e6 | 4.01e6 | 4.03e6 | CG7943 | DRSC16351 |
| 3.52e6 | 4.10e6 | 3.89e6 | frac | DRSC10867 |
| 3.75e6 | 4.27e6 | 4.18e6 | CG32320 | DRSC21514 |
| 3.51e6 | 4.02e6 | 3.95e6 | Ir20a | DRSC20506 |
| 3.56e6 | 4.14e6 | 3.91e6 | Naxd | DRSC09722 |
| 3.53e6 | 4.12e6 | 3.89e6 | CG6527 | DRSC10659 |
| 3.51e6 | 4.07e6 | 3.88e6 | CG17475 | DRSC15238 |
| 3.55e6 | 3.97e6 | 4.09e6 | ds | DRSC00815 |

Targets listed so far whose target name starts with M or m (3):
| mean viability with MMS | viability with MMS, replicate 1 | viability with MMS, replicate 2 | gene | DRSC id |
| --- | --- | --- | --- | --- |
| 3.93e6 | 4.32e6 | 4.32e6 | Menl-2 + Menl-1 | DRSC07469 |
| 3.66e6 | 4.07e6 | 4.20e6 | Menl-2 + Menl-1 | DRSC07470 |
| 3.40e6 | 4.05e6 | 3.49e6 | Moe | DRSC18684 |
